# Assay results from patent US20040091468, “Novel transcriptional mediators of blood vessel development and endothelial differentiation” (published 2004).
# For part of these data: Weaker means in comparison with the reference protein, sequence or condition of that experiment. Protein sequences can lack the tags named with them. For part of these data: At least one result comes from cells or an extract, where the contact may be indirect. For part of these data: Construct, isoform or probe ends are uncertain for at least one entry.
# How the values were obtained:
# [1] = test system: T1, cELF-1 (Gallus gallus); experiment: competition with a labelled probe; conditions: 5 or 50 ng cold competitor vs Tie1 P2 probe; competes only weakly; protein translated in vitro; variant of Tie1 P2
# T1 sequence (limits assumed): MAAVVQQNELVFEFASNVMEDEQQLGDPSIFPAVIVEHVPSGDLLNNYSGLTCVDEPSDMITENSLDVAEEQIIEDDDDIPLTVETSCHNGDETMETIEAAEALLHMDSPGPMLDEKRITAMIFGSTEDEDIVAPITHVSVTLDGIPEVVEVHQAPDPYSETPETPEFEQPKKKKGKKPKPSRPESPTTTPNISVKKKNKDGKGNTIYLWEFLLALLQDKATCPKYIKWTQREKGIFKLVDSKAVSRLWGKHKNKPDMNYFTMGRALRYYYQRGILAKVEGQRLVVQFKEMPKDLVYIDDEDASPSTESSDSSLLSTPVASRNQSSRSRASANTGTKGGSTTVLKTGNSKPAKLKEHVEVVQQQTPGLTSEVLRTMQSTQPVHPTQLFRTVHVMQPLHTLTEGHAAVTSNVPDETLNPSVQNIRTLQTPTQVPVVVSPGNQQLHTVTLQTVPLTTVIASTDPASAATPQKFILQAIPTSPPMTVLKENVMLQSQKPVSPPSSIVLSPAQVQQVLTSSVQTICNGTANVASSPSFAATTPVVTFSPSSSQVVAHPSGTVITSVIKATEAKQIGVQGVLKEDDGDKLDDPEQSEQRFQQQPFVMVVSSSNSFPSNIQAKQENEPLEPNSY
# [2] = test system: T2, cELF-1 (endogenous, CAM extract) (Gallus gallus); experiment: EMSA; conditions: day 10 chicken CAM cell extract; supershifted by anti-ELF-1 antibody; protein in an extract; label: 32P
# T2 sequence (limits assumed): T1 sequence (limits assumed)
# [3] = target: T3, ELF-1 (Homo sapiens) (UniProt P32519); experiment: EMSA; conditions: anti-ELF-1 antibody interferes with complex; also blocked by ELF-1 peptide A at 0.5-1.0 uM (p236, FIG. 12); protein translated in vitro; label: 32P
# T3 sequence (limits assumed): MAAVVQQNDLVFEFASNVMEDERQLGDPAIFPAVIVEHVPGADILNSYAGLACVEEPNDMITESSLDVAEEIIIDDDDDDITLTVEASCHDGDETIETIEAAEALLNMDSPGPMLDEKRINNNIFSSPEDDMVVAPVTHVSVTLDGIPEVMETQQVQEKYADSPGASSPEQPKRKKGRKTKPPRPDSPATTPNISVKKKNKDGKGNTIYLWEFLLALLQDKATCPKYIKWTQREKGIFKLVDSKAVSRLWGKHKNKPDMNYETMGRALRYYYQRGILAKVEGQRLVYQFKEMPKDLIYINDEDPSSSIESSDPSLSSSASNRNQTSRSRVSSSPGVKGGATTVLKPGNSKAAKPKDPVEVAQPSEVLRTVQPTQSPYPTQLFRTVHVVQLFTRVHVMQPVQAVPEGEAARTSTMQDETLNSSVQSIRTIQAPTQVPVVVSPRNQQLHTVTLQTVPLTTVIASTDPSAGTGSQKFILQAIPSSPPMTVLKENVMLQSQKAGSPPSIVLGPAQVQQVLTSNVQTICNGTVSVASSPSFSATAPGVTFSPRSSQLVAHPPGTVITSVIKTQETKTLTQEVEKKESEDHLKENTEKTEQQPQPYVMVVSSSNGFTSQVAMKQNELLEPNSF
Sequence,binding result [1],binding result [2],binding result [3]
CCATCATTTAATCTTCCTCCCCAG (double strand) [Tie1 P2 Mut1],binds more weakly,,
TGCAAAGGAAACAGGAAAAAGGAACTTAAC (double strand) [Tie2 promoter Ets oligonucleotide],,binds,binds
